This is an account of results in article PMC3036730.

Amino acid sequences for entries named in this document (tags omitted).
UniProt P09296: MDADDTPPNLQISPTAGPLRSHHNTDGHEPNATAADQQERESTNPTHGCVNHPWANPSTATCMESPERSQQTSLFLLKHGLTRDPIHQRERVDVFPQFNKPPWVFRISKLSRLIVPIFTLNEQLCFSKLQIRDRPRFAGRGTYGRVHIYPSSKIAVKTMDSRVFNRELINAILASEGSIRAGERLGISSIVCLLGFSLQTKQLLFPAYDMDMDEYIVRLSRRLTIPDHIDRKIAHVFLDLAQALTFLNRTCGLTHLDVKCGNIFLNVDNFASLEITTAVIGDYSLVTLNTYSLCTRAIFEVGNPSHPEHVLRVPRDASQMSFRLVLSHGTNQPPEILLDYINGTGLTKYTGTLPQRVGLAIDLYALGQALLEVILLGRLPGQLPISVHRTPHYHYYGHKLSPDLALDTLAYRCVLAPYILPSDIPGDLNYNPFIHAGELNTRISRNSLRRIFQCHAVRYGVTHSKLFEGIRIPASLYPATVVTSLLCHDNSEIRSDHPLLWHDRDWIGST

Results are given in words; binding and its absence hold for the method and conditions named. In cells and extracts the contact can be indirect. Some results given as binding are weak or reduced against the parent protein; the word gives no strength. Tags and fused reporters may be left off the sequences shown.

For one test, the target named is T1, V5-tagged IRF3 (UniProt Q14653).
T1 sequence: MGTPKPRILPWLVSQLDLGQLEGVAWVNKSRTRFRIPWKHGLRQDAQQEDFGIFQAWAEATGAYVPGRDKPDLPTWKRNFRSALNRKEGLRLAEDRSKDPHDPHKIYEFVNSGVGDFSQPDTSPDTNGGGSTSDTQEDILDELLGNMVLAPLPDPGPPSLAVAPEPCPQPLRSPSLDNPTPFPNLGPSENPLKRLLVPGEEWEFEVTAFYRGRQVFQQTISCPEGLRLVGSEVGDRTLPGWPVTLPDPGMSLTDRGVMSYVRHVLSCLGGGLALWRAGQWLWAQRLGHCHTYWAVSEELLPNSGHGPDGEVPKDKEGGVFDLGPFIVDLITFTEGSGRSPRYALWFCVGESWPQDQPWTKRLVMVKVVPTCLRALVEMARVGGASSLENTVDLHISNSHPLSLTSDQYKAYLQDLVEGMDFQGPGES
Kind of test: co-IP; HEK-293 co-transfected with HA-ORF47 and V5-IRF3, 24 h later infected or not with VZV ROka47S for 24 h; IRF3 immunoprecipitated from total extracts with anti-IRF3 overnight at 4°C, protein A-Agarose, five washes in NP-40 Wash Buffer; blot anti-HA.

Test [1] deals with HA-tagged ORF47 (Varicella-Zoster Virus ORF47 protein kinase) (Varicella-Zoster Virus) (UniProt P09296). Kind of test: co-IP; data not shown; HA-ORF47 immunoprecipitated from total extracts of transfected HEK-293 with anti-HA; blot anti-IRF3.

As to “HA-tagged ORF47 (Varicella-Zoster Virus ORF47 protein kinase) (from UniProt P09296 1-510) (enzyme)”, the binding result in the test with V5-tagged IRF3 is recorded as “binds”.

B1: V5-tagged IRF3 (protein, UniProt Q14653 1-427)
chain: MGTPKPRILPWLVSQLDLGQLEGVAWVNKSRTRFRIPWKHGLRQDAQQEDFGIFQAWAEATGAYVPGRDKPDLPTWKRNFRSALNRKEGLRLAEDRSKDPHDPHKIYEFVNSGVGDFSQPDTSPDTNGGGSTSDTQEDILDELLGNMVLAPLPDPGPPSLAVAPEPCPQPLRSPSLDNPTPFPNLGPSENPLKRLLVPGEEWEFEVTAFYRGRQVFQQTISCPEGLRLVGSEVGDRTLPGWPVTLPDPGMSLTDRGVMSYVRHVLSCLGGGLALWRAGQWLWAQRLGHCHTYWAVSEELLPNSGHGPDGEVPKDKEGGVFDLGPFIVDLITFTEGSGRSPRYALWFCVGESWPQDQPWTKRLVMVKVVPTCLRALVEMARVGGASSLENTVDLHISNSHPLSLTSDQYKAYLQDLVEGMDFQGPGES
On to B1, for which the binding result in test [1] is “binds”.
